Experimental data from the supplement of paper PMC12889115.
The other results are listed elsewhere or left out. These are raw signals, not scaled to a control.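 First-pass screen: polymyxin B was added at a level that permeabilizes the Salmonella outer membrane while sparing the inner membrane. DMSO wells, with and without polymyxin B, defined maximum growth. Because plates differed from one another, each plate's data were ranked separately and the compounds with the lowest OD600 were carried forward as hits.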

Test system: Salmonella enterica serovar Typhimurium SL1344
Assay: bacterial growth OD600 after 18 h with compound and polymyxin B; higher = more bacterial growth (less inhibition)
Details: 50 µM, Mueller-Hinton broth

Row | SMILES | bacterial growth OD600 (polymyxin B 0.75 µg/mL) | bacterial growth OD600 (polymyxin B 1 µg/mL)
1 | CN(C)c1nc2nonc2nc1N1CCc2ccccc2C1 | 0.717 | 
2 | CC1(CCC(=O)NCCc2nc(-c3ccccc3)cs2)CCC(=O)N1 (stereo unspecified) | 0.89 | 
3 | O=C(Cc1cscn1)NCc1nc(NCCCc2ccccc2)c2ccccc2n1 | 0.015 | 
4 | Cc1ccccc1-c1nn(-c2ccc(F)cc2F)cc1CN1CCC(C(N)=O)CC1 |  | 0.933
5 | CCc1ccc(CN2CCN(Cc3ccccc3F)C(CCO)C2)cc1 (stereo unspecified) |  | 0.962
6 | CC(C)(C)CN1CCCC(O)(CN2CCSCC2)C1=O (stereo unspecified) | 0.77 | 
7 | O=C(NCCc1cnn(-c2ccccc2)c1)C1CCC(=O)N(C2CC2)C1 (stereo unspecified) |  | 0.836
8 | COCC1CCCN(Cc2ccc3c(c2)CN(C(=O)Cc2nnc(-c4ccccc4)[nH]2)CCO3)C1 (stereo unspecified) | 0.793 | 
9 | COc1cccc(C(=O)N2CCN(C(=O)CSc3ccc4nnc(-c5cccnc5)n4n3)CC2)c1 | 0.806 | 
10 | CCC(C)NC(=O)c1coc(COc2cccc(F)c2)n1 (stereo unspecified) | 0.817 | 
11 | NC(=O)C1CCCN(C(=O)c2coc(CN3CCN(c4ccccc4F)CC3)n2)C1 (stereo unspecified) | 0.875 | 
12 | NC(=O)C1CCCN(Cc2cn(Cc3ccccc3)nc2-c2ccc3c(c2)OCO3)C1 (stereo unspecified) | 0.834 | 
13 | CN(C(=O)CSc1ccccn1)C1CCCN(C2Cc3ccccc3C2)C1 (stereo unspecified) |  | 0.809
14 | OC(CCc1ccccc1)c1ccc2c(c1)CN(Cc1cccc3c1OCO3)CCO2 (stereo unspecified) | 0.003 | 
15 | CC1=C(C(=O)N2CCC(C3CCN(Cc4cccnc4)CC3)C2)OCCO1 (stereo unspecified) | 0.823 | 
16 | CC(C)OCCNc1nc2nonc2nc1NC1CCCC1 |  | 0.816
17 | Cc1ccc(S(=O)(=O)N2CCC(CO)(Cc3cccc(C(F)(F)F)c3)CC2)s1 |  | 0.014
18 | CC(=O)N1CCN(c2ncccc2CNC(=O)CC2=CCCCC2)CC1 | 0.842 | 
19 | COc1cc(CNC2CCCCCCC2)ccc1OCC(O)CN1CCSCC1 (stereo unspecified) |  | 0.899
20 | CC(C)N(C)C(=O)CC(c1ccc(O)cc1)c1cccc(O)c1 (stereo unspecified) |  | 0.247
21 | C=CCS(=O)(=O)NCc1nc(NCCCc2ccccc2)c2ccccc2n1 | 0.775 | 

Two of the compounds above, with each value named:
COCC1CCCN(Cc2ccc3c(c2)CN(C(=O)Cc2nnc(-c4ccccc4)[nH]2)CCO3)C1 (stereo unspecified)
  bacterial growth OD600 (polymyxin B 0.75 µg/mL): 0.793
COc1cccc(C(=O)N2CCN(C(=O)CSc3ccc4nnc(-c5cccnc5)n4n3)CC2)c1
  bacterial growth OD600 (polymyxin B 0.75 µg/mL): 0.806
